Values from PubChem BioAssay AID1259424 (University of Nebraska Medical Center, 2018).
In all, the deposit lists about 14,000 reagents; shown is an unselected part. 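Higher correlation or smaller distance means closer resemblance to KSR1 loss; control wells, including KSR1 knockdowns, recur on many plates.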 Not all columns of the deposit are shown. Not given: the time to read-out.

- Test: 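Find knockdowns that reproduce the expression shifts seen after KSR1 loss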 (primary screen)
- Cells: human HCT116 colon cancer cells
- Knock-down reagent: siRNA pool against human genes, 50 nM
- Detection: 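Six signature mRNAs by branched-DNA multiplex assay, scaled to two housekeeping genes and non-targeting median, log2; matched to mean KSR1 knockdown profile by Pearson correlation and euclidean distance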
- Direction: mean correlation with KSR1 profile and KSR1 correlation: higher = expression change more like KSR1 knockdown; mean distance from KSR1 profile: higher = expression change less like KSR1 knockdown

gene knocked down | mean correlation with KSR1 profile | mean distance from KSR1 profile | KSR1 correlation, replicate 1
CABIN1 (calcineurin binding protein 1) | -0.451 | 3.93 | -0.403
PPIL4 (peptidylprolyl isomerase like 4) | 0.578 | 1.41 | 0.509
SIDT2 (SID1 transmembrane family member 2) | -0.145 | 1.94 | 0.0803
GALR3 (galanin receptor 3) | 0.647 | 2.45 | 0.469
RPS13 (ribosomal protein S13) | -0.424 | 3.47 | -0.554
RARA (retinoic acid receptor alpha) | -0.544 | 3.11 | -0.484
UTF1 (undifferentiated embryonic cell transcription factor 1) | 0.0194 | 1.79 | 0.117
KCNK3 (potassium two pore domain channel subfamily K member 3) | -0.297 | 4.01 | -0.185
HLA-DRB1 (major histocompatibility complex, class II, DR beta 1) | 0.167 | 2.29 | -0.161
DYNC1LI2 (dynein cytoplasmic 1 light intermediate chain 2) | 0.191 | 3.01 | 0.0187
TSKS (testis specific serine kinase substrate) | -0.347 | 1.75 | 0.106
NCAN (neurocan) | -0.116 | 3.21 | -0.043
RNF44 (ring finger protein 44) | -0.0271 | 2.15 | 0.0763
PDZD7 (PDZ domain containing 7) | 0.748 | 1.88 | 0.771
SLTM (SAFB like transcription modulator) | 0.561 | 1.24 | 0.68
GINS3 (GINS complex subunit 3) | 0.381 | 1.43 | 0.462
NECAP1 (NECAP endocytosis associated 1) | 0.0726 | 1.98 | 0.263
MAOA (monoamine oxidase A) | -0.0483 | 1.55 | -0.131
TSSK1B (testis specific serine kinase 1B) | 0.37 | 1.36 | 0.616
UBXN8 (UBX domain protein 8) | -0.441 | 2.7 | -0.258
NUP98 (nucleoporin 98 and 96 precursor) | 0.297 | 2.13 | 0.44
SPIDR (scaffold protein involved in DNA repair) | -0.363 | 1.64 | -0.376
PRB1 (proline rich protein BstNI subfamily 1) | -0.125 | 1.62 | -0.112
RNF10 (ring finger protein 10) | -0.651 | 1.95 | -0.751
TMEM70 (transmembrane protein 70) | 0.517 | 0.968 | 0.847
RTTN (rotatin) | 0.00775 | 1.74 | -0.0321
UBB (ubiquitin B) | -0.00299 | 5.55 | 0.126
CGB1 (chorionic gonadotropin subunit beta 1) | 0.147 | 1.39 | -0.0459
DNAJB12 (DnaJ heat shock protein family (Hsp40) member B12) | -0.585 | 1.37 | -0.51
MTA1 (metastasis associated 1) | -0.335 | 2.59 | -0.427
GIPR (gastric inhibitory polypeptide receptor) | 0.706 | 1.34 | 0.706
NBR1 (NBR1 autophagy cargo receptor) | 0.521 | 2.15 | 0.738
EIF2AK1 (eukaryotic translation initiation factor 2 alpha kinase 1) | 0.368 | 1.77 | 0.368
OTULINL (OTU deubiquitinase with linear linkage specificity like) | 0.162 | 1.89 | -0.104

Ordered by “mean distance from KSR1 profile” (high to low): 3 of the entries above
gene knocked down | mean correlation with KSR1 profile | mean distance from KSR1 profile | KSR1 correlation, replicate 1
CABIN1 (calcineurin binding protein 1) | -0.451 | 3.93 | -0.403
SIDT2 (SID1 transmembrane family member 2) | -0.145 | 1.94 | 0.0803
PPIL4 (peptidylprolyl isomerase like 4) | 0.578 | 1.41 | 0.509
